The target in test [1] is T1, CPSF6, mouse (mouse (endogenous in P0 cortex)) (UniProt Q6NVF9).
T1 sequence: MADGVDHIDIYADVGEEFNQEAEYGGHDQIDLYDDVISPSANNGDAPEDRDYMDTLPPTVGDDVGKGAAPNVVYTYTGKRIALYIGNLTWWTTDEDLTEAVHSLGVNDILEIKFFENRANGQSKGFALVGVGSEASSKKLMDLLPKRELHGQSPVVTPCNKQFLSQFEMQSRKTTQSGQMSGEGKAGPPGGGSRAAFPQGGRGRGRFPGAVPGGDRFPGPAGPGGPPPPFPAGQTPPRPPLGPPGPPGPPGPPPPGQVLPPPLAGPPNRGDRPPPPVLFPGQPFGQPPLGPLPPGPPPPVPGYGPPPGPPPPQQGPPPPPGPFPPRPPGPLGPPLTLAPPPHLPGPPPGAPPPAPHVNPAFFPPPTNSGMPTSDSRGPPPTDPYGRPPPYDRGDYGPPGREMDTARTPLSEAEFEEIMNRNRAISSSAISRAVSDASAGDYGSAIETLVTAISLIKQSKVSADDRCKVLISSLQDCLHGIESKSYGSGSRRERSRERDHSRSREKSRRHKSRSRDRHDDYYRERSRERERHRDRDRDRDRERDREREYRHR
Briefly: co-IP; reciprocal Co-IP-Western to validate newly identified PHF21A partners; source of the extract and the antibodies used to precipitate are not given.

Test [2] has as its target PHF21A neuronal isoform (PHF21A-n), mouse (mouse (endogenous in cortical neurons and P0 cortex)). Briefly: co-IP; anti-PHF21A antibody crosslinked to Protein A/G beads, control rabbit IgG; nuclear extracts (0.6 M KCl extraction) of LUHMES cells (day 0, day 3), 293T cells, MEFs, cortical neurons (DIV7) or P0 mouse cortices; 3 h at 4 °C; Western blot. On the technique in general: In western blotting, separated proteins are transferred to a membrane and probed.

No constants are given. Whether binding was seen depends on the method and setting. Binding seen in cells or lysates may run through a third protein. Binding calls can cover weak binding; strength is not graded here.

For the molecule “PHF21A neuronal isoform (PHF21A-n), mouse”, the binding entry in test [1] is listed as “binds”.

B1: HMG20B (BRAF35), mouse (protein, UniProt Q9Z104 1-317)
chain: MSHGPRQPGAATAPAGGKTPGQHGAFVVAVKQERSEGSRAGEKGPQEEEPVKKRGWPKGKKRKKILPNGPKAPVTGYVRFLNERREQIRTRHPDLPFPEITKMLGAEWSKLQPAEKQRYLDEAEKEKQQYLKELWAYQQSEAYKVCTEKIQENKIKKEDSSSGLMNTLLNGHKGVDCDGFSTFDVPIFTEEFLDQNKAREAELRRLRKMNVAFEEQNAVLQRHTQSMSSARERLEQELALEERRTLALQQQLQAVRQALTASFASLPVPGTGETPTLGTLDFYMARLHGAIERDPAQHERLIARVKEILARVASEHL
In the case of B1, the binding result in test [2] is reported as “binds”.

B2: HMG20A (iBRAF), mouse (protein, UniProt Q9DC33 1-346)
chain: MESLMASSTLPPLFADEDGSKESNDLATSGLTHPEGPYGSAATSTTNPEFVEDLSQGQLLQSEASNAVEGNEQRPEDEQRSKRGGWSKGRKRKKPLRDSNAPKSPLTGYVRFMNERREQLRAKRPEVPFPEITRMLGNEWSKLPPEEKQRYLDEADRDKERYMKELEQYQKTEAYKVFSRKTQDRQKGKSHRQDAARQATHDHEKETEVKERSVFDIPIFTEEFLNHSKAREAELRQLRKSNMEFEERNAALQKHVESMRTAVEKLEVDVIQERSRNTVLQQHLETLRQMLTSSFASMPLPGSGEIPTVDTIDSYMNRLHSIILANPQDNENFIATVREVVNRLDR
In the case of B2, the binding result in test [2] is reported as “binds”.

Values taken from PMC11605454.
